The text below walks through data of PubChem BioAssay AID1458 (National Center for Advancing Translational Sciences (NCATS), 2008).

In all, about 210,000 compounds went through this assay and about 5,900 (2.8%) were called active. Roughly 5% stayed inconclusive and do not appear here. The call rests on the fitted dose curve; in most records, active means well fitted activation curve with a large enough effect; inconclusive means small, poorly fitted or top-dose-only effect; inactive means no such curve, though single readings can be large or run the other way. The entries are a selection whose mix differs from that of the whole data set. Entries without a call were filed so in the source.
Potency means the concentration at half of the fitted maximal effect.

The experiment is described as follows: qHTS Assay for Enhancers of SMN2 Splice Variant Expression. Further: nearly all actives have a fitted effect of over 55% in size. On activity change, positive = activation: % of control where 0% means no effect. The conditions noted are these: HEK293 SMN2-luciferase splicing reporter, luminescence, 30-36 h; activity change, positive = activation: at 46.1 µM (top of the series) unless noted. In outline:
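HEK293 cells carry an SMN2 minigene-luciferase reporter in which exon 7 inclusion puts luciferase in frame. Cells were seeded at 2000 cells/well, attached for 10-12 hours, then exposed to compounds for 30-36 hours at 37C before ONE-Glo luminescence.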
(In general: In qHTS, concentration-response curves come from the screen itself.)
With `CC(C)c1ccc(Nc2nc(CC(=O)O)cs2)cc1`, the activity change, positive = activation is 85.3%. Still for that read-out and setting: next, `CCOc1cc(S(=O)(=O)NC2CCCC2)ccc1Cl`: 30.8%; `Cc1c(Cl)cccc1NC(=S)NCc1ccccc1Cl`: -20.5%; `Cc1cc(/C=N/n2cnnc2)c(C)n1-c1ccc(OCc2ccc(F)cc2)cc1`: -60.5%. On the same count and under the same terms, as for `O=C(O)CCC(=O)Nc1ccc(C(=O)OC2CCCCC2)cc1`, the figure is inactive: -15.4%. Regarding `Cc1nc2ccccc2n1CC(O)COCC1CC=CCC1` (stereo not given), the activity change, positive = activation was -81.8%. Take `CC(C)Cc1nnc(NC(=O)CSc2nc(=O)cc(N)n2-c2ccccc2)s1`: the activity change, positive = activation amounted to 32%. For the compound `c1ccc(-n2nnnc2NC2CCCCCC2)cc1`, the activity change, positive = activation is -55.2%. In the case of `Cc1nn(-c2ccccc2)c(Cl)c1/C=N/Nc1nc2ccccc2n1C`, the Potency was active: 11.2 µM. Regarding `CCCCOC(=O)c1cccc(NC(=O)/C=C/c2ccccc2Cl)c1`, the Potency was active: 1.41 µM. As to `CCc1ccc(N2CSC3=C(C#N)C(c4cccs4)CC(=O)N3C2)cc1` (stereo not given), the activity change, positive = activation stood at 15.8%. `COc1ccc2c(c1)O[C@H](c1ccc3c(c1)OCO3)[C@@H](O)C2=O`: the Potency was active: 12.6 µM. Still for that read-out and setting: as for `Cc1ccc2c(c1)-c1nc3ccccc3cc1C2=NC1CCCCC1`, the figure is active: 6.31 µM.

As to `CCOC(=O)c1ccc(NC(=O)C(=O)NCc2ccncc2)cc1`, the activity change, positive = activation was -51%. The same measure, in the same setting: next, `COc1cc(NC(=O)CS(=O)(=O)c2ccccc2)cc(OC)c1OC`: 33.9%; `CCCNC1=C(N(C(C)=O)c2cccc(F)c2)C(=O)c2ccccc2C1=O`: inactive: -110%. `Cn1cnnc1Sc1cc(N2CCN(S(=O)(=O)c3ccc(Cl)c(Cl)c3)CC2)ccc1[N+](=O)[O-]`: the “activity change, positive = activation” value was inactive: -35.8%.

Take `CCOc1ccc(C(=O)Nc2cc(C)on2)cc1`: the Potency was active: 8.91 µM. In the case of `CC(C)Sc1nnc([C@H](Cc2c[nH]c3ccccc23)NC(=O)OC(C)(C)C)o1`, the activity change, positive = activation was determined as 46.2%. Same read-out and setting: as for `Cc1cccc(/C=N/NC(=O)NC2CCCCC2)c1`, the figure is 30.8%; as for `O=C(NNC(=S)Nc1ccc(F)cc1)C1CC1c1ccc(Cl)cc1` (stereo not given), -8.68%; as for `Fc1ccc(C(CCCn2nnc(-c3cccnc3)n2)c2ccc(F)cc2)cc1`, -41.9%. On the same count and under the same terms, next, `Clc1ccc2scc(CN3CCCCC3)c2c1`: inactive: -3.33%. Take `COc1ccc(C(=O)Nc2ccc(OC)c(OC)c2)cc1`: the Potency is active: 11.2 µM. Turning to `Cc1ccc(S(=O)(=O)c2c(N)n(CC3CCOC3)c3nc4ccccc4nc23)cc1` (stereo not given), the activity change, positive = activation amounted to 22.3%. In the case of `Cc1ncsc1CCOC(=O)C1C2CC3CC(C2)CC1C3` (stereo not given), the “activity change, positive = activation” value was inactive: -31.4%. Regarding `CCCc1nn2cc(-c3ccc(C)c(C)c3)nc2s1`, the Potency is active: 1.26 µM. In the case of `CCOC(=O)Cc1c(C)nc2c(-c3ccc(Cl)cc3)c(C(F)(F)F)nn2c1C`, the “activity change, positive = activation” value is inactive: -40%. Regarding `On1onc2c3cc(-c4ccccc4)nc3ccc21`, the activity change, positive = activation was -93.1%. Consider `CCOc1cc(/C=N/Nc2cccc(C(=O)O)c2)ccc1OCC(=O)N1CCCCC1`, for which the Potency was active: 11.2 µM.

On to `N#Cc1ccc(N2Cc3ccccc3/C2=N/C(=O)Nc2ccc(Cl)cc2)cc1`, for which the activity change, positive = activation came out at 37.3%.

For `CCOC(=O)c1oc2ccccc2c1NC(=O)c1cccs1`, the activity change, positive = activation was -31.2%.

With `C=CC(C)N1C(=O)S/C(=C\c2ccc(N3CCOCC3)cc2C)C1=O` (stereo not given), the “activity change, positive = activation” value was inactive: -37.6%. Take `COc1ccc(-c2cc(=O)c3ccccc3[nH]2)cc1`: the “activity change, positive = activation” value was inactive: -6.66%. Take `Cc1cccc(-c2nc(CN3CCCC(C(=O)NCCc4ccc(Cl)cc4)C3)c(C)o2)c1` (stereo not given): the “activity change, positive = activation” value is inactive: -64.6%.

Regarding `Clc1cccc(-c2cc3nc4c(c(N5CCNCC5)n3n2)CCCC4)c1`, the “activity change, positive = activation” value was inactive: -125%. For `CCN(CC)C(=O)CSc1nc2ccccc2c(=O)[nH]1`, the activity change, positive = activation amounted to 31.6%. Same read-out and setting: next, `O=C(c1ccc(Cl)c(S(=O)(=O)N2CCCCCC2)c1)N1CCN(c2ccccn2)CC1`: inactive: -46.5%; `O=C(NCc1ccco1)c1sc2cccc(F)c2c1Cl`: 41.5%. Consider `CCOC(=O)COn1c(=O)c(-c2cc3ccccc3o2)[n+]([O-])c2ccccc21`, for which the Potency was active: 14.1 µM.
